# Test results: PubChem BioAssay (EPA / NIEHS)
# Protein sequences, listed by entry. Tags and fused reporters are not part of them. Lines headed by an entry give the natural chain unless they say otherwise; changes in a name come on top.
# UniProt Q9UNQ0: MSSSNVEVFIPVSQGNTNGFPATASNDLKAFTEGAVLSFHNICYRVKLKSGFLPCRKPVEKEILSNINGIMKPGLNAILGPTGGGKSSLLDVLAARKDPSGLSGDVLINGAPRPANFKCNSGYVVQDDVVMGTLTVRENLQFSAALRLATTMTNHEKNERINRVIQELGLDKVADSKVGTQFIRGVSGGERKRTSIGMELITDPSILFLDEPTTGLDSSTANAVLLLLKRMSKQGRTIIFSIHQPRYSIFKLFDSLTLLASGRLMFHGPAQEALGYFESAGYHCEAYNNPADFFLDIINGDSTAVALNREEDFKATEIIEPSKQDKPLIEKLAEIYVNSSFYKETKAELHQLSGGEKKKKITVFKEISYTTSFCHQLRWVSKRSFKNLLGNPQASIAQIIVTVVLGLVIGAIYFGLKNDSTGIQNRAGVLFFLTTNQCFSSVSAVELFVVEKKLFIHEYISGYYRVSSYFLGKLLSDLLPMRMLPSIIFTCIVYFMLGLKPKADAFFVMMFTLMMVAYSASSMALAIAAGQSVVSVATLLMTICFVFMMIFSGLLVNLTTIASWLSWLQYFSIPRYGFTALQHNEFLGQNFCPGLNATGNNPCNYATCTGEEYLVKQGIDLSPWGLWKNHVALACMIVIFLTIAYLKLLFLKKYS
# The shares of active, inactive and inconclusive entries below differ from those in the screen. For some assays here: Potencies beside an inconclusive call are fits to weak or partial responses and may not hold up. Calls of active or inactive are those of the source. How the source made its calls: active means hit-call score of the fitted dose curve at least 0.9, where 1 is the maximum; inconclusive means response in the unintended direction; inactive means score below 0.9.
# Tests used:
# [1] = Tanguay_ZF_120hpf_SOMI_legacy: (Legacy) Oregon State University Tanguay Lab 120 Hour Post-fertilization zebrafish Assay for Somite Malformation (AID 2283647)
# Procedure, shortened: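 Binary somite-defect scoring at 120 hpf, omitted for embryos that died, in wild-type (Tropical 5D) zebrafish with chorion removed by pronase at 4 hpf; static exposure began 6 hpf, single embryos per well, 28C, 0.64% DMSO; fitted positive versus DMSO.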
# [2] = Tanguay_ZF_120hpf_SWIM_legacy: (Legacy) Oregon State University Tanguay Lab 120 Hour Post-fertilization zebrafish Assay for Swim Bladder Malformation (AID 2283654);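 further: swim bladder malformation in each larva scored yes or no under brightfield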
# Procedure, shortened: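 Scoring is binary for swim bladder defects at 120 hpf, by brightfield inspection of zebrafish larvae. Embryos were exposed singly from 6 hpf after pronase dechorionation, at 28C with 0.64% DMSO; mortality excluded scoring.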
# [3] = Tanguay_ZF_120hpf_TR_legacy: (Legacy) Oregon State University Tanguay Lab 120 Hour Post-fertilization zebrafish Assay for Touch Response (AID 2283667)
# Procedure, shortened: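 Binary touch-response endpoint in larvae at 120 hpf after static waterborne exposure from embryo stage (28°C, 0.64% DMSO vehicle, 5 uM trimethyltin chloride as positive control); embryos dead at 24 or 120 hpf excluded; fitted as gain versus DMSO.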
# [4] = Tanguay_ZF_120hpf_PFIN_legacy: (Legacy) Oregon State University Tanguay Lab 120 Hour Post-fertilization zebrafish Assay for Pectoral Fin Malformation (AID 2283648);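 further: each larva judged yes or no for fin defect by brightfield with dead larvae skipped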
# Procedure, shortened: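 Pectoral fin malformation was recorded as a binary endpoint at 120 hpf in wild-type Tropical 5D larvae, which had been dechorionated and exposed statically from 6 hpf at 28C in 0.64% DMSO. Dead embryos were excluded.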
# [5] = Tanguay_ZF_120hpf_NC_legacy: (Legacy) Oregon State University Tanguay Lab 120 Hour Post-fertilization zebrafish Assay for Notochord and Tail Malformation (AID 2283656)
# Procedure, shortened: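 Binary scoring of notochord distortion by brightfield microscopy; embryos dying were not scored. Wild-type Tropical 5D embryos, chorion removed, exposed singly and statically from 6 to 120 hpf, 28C, sealed, 0.64% DMSO.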
# [6] = Tanguay_ZF_120hpf_CIRC_legacy: (Legacy) Oregon State University Tanguay Lab 120 Hour Post-fertilization zebrafish Assay for Circulatory Malformation (AID 2283651)
# Procedure, shortened: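 Binary circulatory malformation call at 120 hpf by brightfield imaging of zebrafish larvae; chorion removed at 4 hpf, static exposure from 6 hpf in sealed dark plates at 28C, final DMSO 0.64%; non-mortality endpoints skipped if embryo died.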
# [7] = Tanguay_ZF_120hpf_CFIN_legacy: (Legacy) Oregon State University Tanguay Lab 120 Hour Post-fertilization zebrafish Assay for Caudal Fin Malformation (AID 2283649)
# Procedure, shortened: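 Binary brightfield scoring of caudal fin defects at 120 hpf after static, light-shielded exposure at 28C from 6 hpf. Tropical 5D embryos, chorion removed with pronase at 4 hpf, final DMSO 0.64%.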
# [8] = Tanguay_ZF_120hpf_PIG_legacy: (Legacy) Oregon State University Tanguay Lab 120 Hour Post-fertilization zebrafish Assay for Pigmentation Malformation (AID 2283650)
# Procedure, shortened: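 Pigment malformation recorded as a binary call at 120 hpf in zebrafish (Tropical 5D) exposed singly from 6 hpf after pronase dechorionation. Static, sealed, 28C exposure, 0.64% DMSO; mortality excludes scoring; positive-direction fit against DMSO.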
# [9] = CCTE_Simmons_CellTiterGLO_HEK293T: Viability Assessment in CCTE's Assays for Thyroperoxidase (TPO) Inhibition, Simmons Lab (AID 2283665)
# Procedure, shortened: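 Luciferase-coupled ATP content after 24 h exposure gives viability; 8-point series from 5 nM to 87.5 uM final in 0.5% DMSO. Human HEK293T cells, 1% FBS medium, three biological replicates, dichlone positive control.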
# [10] = Tanguay_ZF_120hpf_TRUN_legacy: (Legacy) Oregon State University Tanguay Lab 120 Hour Post-fertilization zebrafish Assay for Truncated Body (AID 2283655)
# Procedure, shortened: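 Binary presence/absence of truncated body is recorded at 120 hpf by brightfield, with non-mortality endpoints skipped after death. Exposure is static from 6 hpf in sealed dark plates at 28C, using dechorionated wild-type zebrafish, 0.64% DMSO.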
# [11] = read-out: ABC Transporter (ABCB1), ABCB1 (gene 5243); test: CLD_ABCB1_6hr: CellzDirect (CLD) Gene Expression Assay for ABC Transporter (ABCB1) at 6 hours (AID 2283659);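 on outcome: hits raise ABCB1 transcript above the DMSO vehicle baseline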
# Procedure, shortened: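 ABCB1 transcript measured by quantitative nuclease protection assay, chemiluminescent read-out, 6 h after dosing human hepatocyte cultures (0.2% DMSO vehicle, daily redosing). Activity fitted as increase over DMSO baseline; cytotoxicity flagged by phase-contrast morphology.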
# [12] = read-out: alkyl and aryl transferase (GSTA2), GSTA2 (gene 2939); test: CLD_GSTA2_6hr: CellzDirect (CLD) Gene Expression Assay for alkyl and aryl transferase (GSTA2) at 6 hours (AID 2283666)
# Procedure, shortened: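 GSTA2 transcript induction at 6 h, quantified by nuclease protection (qNPA) with chemiluminescent detection, in human liver primary hepatocytes exposed to several compound concentrations with 0.2% DMSO as baseline; phase-contrast morphology annotated apparent cytotoxicity.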
# [13] = read-out: organic anion transporter (SLCO1B1), SLCO1B1 (gene 10599); test: CLD_SLCO1B1_6hr: CellzDirect (CLD) Gene Expression Assay for organic anion transporter (SLCO1B1) at 6 hours (AID 2283668);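 further: active means mRNA induction above DMSO baseline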
# Procedure, shortened: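 SLCO1B1 mRNA induction measured 6 h after dosing by quantitative nuclease protection with chemiluminescent read-out, in human primary hepatocyte cultures given chemicals at several concentrations (vehicle 0.2% DMSO). Increase over DMSO baseline fitted; morphology-based cytotoxicity annotated yes/no.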
# [14] = read-out: Broad substrate specificity ATP-binding cassette transporter ABCG2 (Homo sapiens) (UniProt Q9UNQ0); test: CLD_ABCG2_6hr: CellzDirect (CLD) Gene Expression Assay for ABC Transporter (ABCG2) at 6 hours (AID 2283660)
# Procedure, shortened: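 ABCG2 mRNA induction measured by qNPA chemiluminescence in human primary hepatocyte cultures, 6 h post-dose. Chemicals tested at several concentrations against a 0.2% DMSO vehicle; positive-direction fit relative to DMSO.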
# [15] = read-out: xenobiotic metabolism (CYP2C9), CYP2C9 (gene 1559); test: CLD_CYP2C9_6hr: CellzDirect (CLD) Gene Expression Assay for xenobiotic metabolism (CYP2C9) at 6 hours (AID 2283664)
# Procedure, shortened: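 Readout is qNPA chemiluminescence of CYP2C9 mRNA, taken 6 h after dosing of cultured human liver primary cells at several concentrations. Activity is the increase over 0.2% DMSO baseline. Morphology-based cytotoxicity flagged yes/no.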
# [16] = read-out: sulfotransferase (SULT2A), SULT2A1 (gene 6822); test: CLD_SULT2A_6hr: CellzDirect (CLD) Gene Expression Assay for sulfotransferase (SULT2A) at 6 hours (AID 2283669);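 further: hits raise transcript level above the DMSO vehicle baseline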
# Procedure, shortened: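 Measured 6 h after dosing, SULT2A1 mRNA in human hepatocyte lysates was quantified by S1 nuclease protection with chemiluminescent detection. Increases fitted against 0.2% DMSO vehicle baseline; phase-contrast cytotoxicity recorded yes/no.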
compound,measurement,setting,value
CC[C@H]1OC(=O)[C@H](C)[C@@H](O[C@H]2C[C@@](C)(OC)[C@@H](O)[C@H](C)O2)[C@H](C)[C@@H](O[C@@H]2O[C@H](C)C[C@H](N(C)C)[C@H]2O)[C@](C)(O)C[C@@H](C)C(=O)[C@H](C)[C@@H](O)[C@]1(C)O,outcome,[1],inactive
same,AC50,[2],inconclusive: 76.2 µM
same,AC50,[3],inconclusive: 70.2 µM
Clc1cc(Cl)c(Cl)cc1Cl,AC50,[4],inconclusive: 60.6 µM
same,AC50,[5],inconclusive: 32.6 µM
C[Si]1(C)O[Si](C)(C)O[Si](C)(C)O[Si](C)(C)O1,outcome,[4],inactive
same,AC50,[6],inconclusive: 5.96 µM
Cc1oc(-c2ccccc2)nc1CCOc1cccc2c1ccn2CCC(=O)O,AC50,[7],inconclusive: 2.47 µM
COc1cc(S(=O)(=O)O)c(C)cc1N=Nc1c(O)ccc2cc(S(=O)(=O)O)ccc12,AC50,[4],inconclusive: 137 µM
same,AC50,[6],inconclusive: 66.8 µM
Fc1ccccc1[C@@H](F)COC1CCC(Nc2ncnc3[nH]ncc23)CC1 (stereo partly specified),outcome,[7],inactive
O=C1c2c(O)cccc2Cc2cccc(O)c21,AC50,[4],inconclusive: 98.5 µM
same,AC50,[3],inconclusive: 202 µM
O=C(O)Cc1cc(I)c(Oc2ccc(O)c(I)c2)c(I)c1,outcome,[7],inactive
same,AC50,[8],active: 0.177 µM
Oc1ccccc1,AC50,[7],inconclusive: 202 µM
same,outcome,[8],inactive
same,AC50,[6],inconclusive: 25.2 µM
same,outcome,[9],inactive
CC(C)(C)c1csc(-c2cc3cc(OCc4ccccc4CC(=O)O)ccc3o2)n1,outcome,[4],inactive
same,AC50,[7],inconclusive: 40.9 µM
same,AC50,[8],inconclusive: 26.7 µM
CCN(CC)C(=S)SSC(=S)N(CC)CC,AC50,[1],active: 0.619 µM
same,AC50,[6],active: 5.12 µM
same,AC50,[2],active: 1.1 µM
same,AC50,[10],active: 0.904 µM
same,AC50,[5],active: 0.112 µM
same,AC50,[3],active: 2.17 µM
NC(=O)NO,AC50,[1],inconclusive: 48.3 µM
same,outcome,[6],inactive
c1ccc2ncccc2c1,outcome,[4],inactive
same,outcome,[8],inactive
CCOCCOCCOCCO,AC50,[4],inconclusive: 202 µM
same,AC50,[6],inconclusive: 25.5 µM
same,outcome,[10],inactive
c1ccc2n[nH]nc2c1,outcome,[4],inactive
NC(=O)N(O)[C@@H]1COc2cc(OCc3ccccc3)ccc21,outcome,[4],inactive
same,AC50,[8],inconclusive: 1.44 µM
same,AC50,[6],inconclusive: 26.2 µM
same,AC50,[5],inconclusive: 32.2 µM
CC(C)=CCC/C(C)=C\CO,AC50,[1],inconclusive: 80 µM
same,AC50,[2],inconclusive: 90 µM
O=C(OCCOCCOC(=O)c1ccccc1)c1ccccc1,AC50,[1],inconclusive: 25.9 µM
same,AC50,[5],inconclusive: 19.1 µM
C=CCCCCCCCCCCCC,AC50,[7],inconclusive: 1.19 µM
same,AC50,[8],inconclusive: 202 µM
CCCCCCCC1CCC(=O)O1 (stereo unspecified),AC50,[4],active: 51.5 µM
same,outcome,[6],inactive
same,AC50,[2],inconclusive: 0.095 µM
same,outcome,[10],inactive
CCc1cc(C2=C(C(=O)O)N(c3ccccc3C(F)(F)F)S(=O)(=O)c3ccccc32)cc2c1OCO2,AC50,[1],inconclusive: 201 µM
same,AC50,[8],inconclusive: 9.64 µM
same,AC50,[6],inconclusive: 6.13 µM
same,AC50,[5],inconclusive: 32.5 µM
Nc1ccn([C@@H]2O[C@H](CO)[C@@H](O)[C@@H]2O)c(=O)n1,outcome,[4],inactive
CC(C)=CCC/C(C)=C/CO,AC50,[7],active: 31.6 µM
Nc1nc(Cl)nc2c1ncn2[C@H]1C[C@H](O)[C@@H](CO)O1,outcome,[4],inactive
same,AC50,[8],inconclusive: 1.72 µM
same,outcome,[10],inactive
same,outcome,[3],inactive
Cc1ccc(C)c(O)c1,outcome,[7],inactive
Nc1cccc2c(N)cccc12,outcome,[1],inactive
same,AC50,[6],inconclusive: 104 µM
O=C1CCCCCN1,AC50,[4],inconclusive: 0.00848 µM
CCCCCCCCCCCCc1ccccc1,outcome,[7],inactive
same,AC50,[8],inconclusive: 91.6 µM
CC(=O)Nc1ccc(O)cc1,outcome,[1],inactive
same,outcome,[10],inactive
same,AC50,[5],inconclusive: 2.09 µM
CCCCC(CC)COC(=O)CCCCCCCCC(=O)OCC(CC)CCCC (stereo unspecified),outcome,[4],inactive
CC(C)(C)CC(C)(C)c1ccc(O)c(-n2nc3ccccc3n2)c1,outcome,[4],inactive
same,outcome,[10],inactive
same,AC50,[5],inconclusive: 202 µM
CS(=O)(=O)c1ccc([C@@H](CC2CCCC2)C(=O)Nc2cnccn2)cc1Cl,AC50,[1],inconclusive: 184 µM
same,AC50,[2],inconclusive: 201 µM
CCCCC(CC)CN1C(=O)C2C3C=CC(C3)C2C1=O (stereo unspecified),outcome,[4],inactive
same,AC50,[6],inconclusive: 27.7 µM
same,outcome,[11],inactive
same,AC50,[12],inconclusive: 20 µM
same,AC50,[13],inconclusive: 0.00409 µM
O=C(O)c1ccc([N+](=O)[O-])cc1,outcome,[7],inactive
COCC(C)OCC(C)O (stereo unspecified),AC50,[7],inconclusive: 166 µM
same,AC50,[8],inconclusive: 9.51 µM
same,AC50,[10],inconclusive: 179 µM
CCCN(CCC)C(=O)SCC,AC50,[6],inconclusive: 0.0242 µM
same,AC50,[11],inconclusive: 20 µM
same,outcome,[11],inactive
same,outcome,[14],inactive
same,AC50,[15],inconclusive: 20 µM
same,AC50,[13],inconclusive: 20 µM
same,AC50,[16],inconclusive: 0.00814 µM
CO[C@H]1/C=C/O[C@@]2(C)Oc3c(C)c(O)c4c(O)c(c(/C=N/N5CCN(C)CC5)c(O)c4c3C2=O)NC(=O)/C(C)=C\C=C\[C@H](C)[C@H](O)[C@@H](C)[C@@H](O)[C@@H](C)[C@H](OC(C)=O)[C@@H]1C,outcome,[7],inactive
same,outcome,[10],inactive
same,AC50,[5],inconclusive: 1.11 µM
CC(=O)OCCOCCOCCOC(C)=O,AC50,[8],inconclusive: 25.1 µM
same,AC50,[5],inconclusive: 16.5 µM
COc1cc(C(C)C)c2c(c1)S(=O)(=O)N(COc1cc(=O)n3cccc(OCCN4CCCCC4)c3n1)C2=O,AC50,[8],inconclusive: 2.48 µM
same,outcome,[2],inactive
CCc1ccc(CCOc2ccc(CC3SC(=O)NC3=O)cc2)nc1 (stereo unspecified),AC50,[2],inconclusive: 4.84 µM
FC(F)(F)C(F)(F)C(F)(F)C(F)(F)C(F)(F)C(F)(F)CCI,AC50,[8],inconclusive: 101 µM
same,AC50,[5],inconclusive: 4 µM

# Exported as tab-separated lines: entries from further up
compound	measurement	setting	value
COc1cc(S(=O)(=O)O)c(C)cc1N=Nc1c(O)ccc2cc(S(=O)(=O)O)ccc12	AC50	[6]	inconclusive: 66.8 µM
O=C(O)Cc1cc(I)c(Oc2ccc(O)c(I)c2)c(I)c1	AC50	[8]	active: 0.177 µM
CCCN(CCC)C(=O)SCC	AC50	[13]	inconclusive: 20 µM
FC(F)(F)C(F)(F)C(F)(F)C(F)(F)C(F)(F)C(F)(F)CCI	AC50	[5]	inconclusive: 4 µM
